# According to PubChem BioAssay AID493014 (National Center for Advancing Translational Sciences (NCATS), 2011):
# This is one part of the list. Shown are side measurements of this screen, not its main read-out; they come without a call. The list favours compounds with an active or inconclusive main result. Words in brackets tell the shape of the fitted curve; partial curves, single points and poor fits give uncertain potencies.
# Experiment: qHTS Assay to Find Inhibitors of Chronic Active B-Cell Receptor Signaling
# Settings: ABC-DLBCL IkBa-CBG/CBR reporter, luminescence ratio (green luciferase fused to IkBa over red control in TMD8 lymphoma cells), 4 h
# Outline: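 TMD8 human ABC-DLBCL cells with doxycycline-inducible IκBα–green luciferase fusion and unfused red luciferase, in 0.5% FBS medium; compounds up to 46 uM, 4 h at 37C. Green/red luminescence ratio, filter-overlap corrected, fitted to concentration-response curves.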
# [1] = measured here: CBR red luminescence, cell number
# [2] = measured here: IkBa-CBG green luminescence
Compound,AC50 [1],AC50 [2]
Cc1ccc(C(=O)NN2C(=O)C3C(C2=O)C2C=CC3C23CC3)cc1 (stereo unspecified),"15.8 µM [falling, partial curve, poor fit]",–
COc1ccc(N(CC(=O)N2c3ccccc3CC2C)S(=O)(=O)c2c(C)noc2C)cc1 (stereo unspecified),"3.66 µM [falling, partial curve, poor fit]",–
O=C(NCC(=O)N1CCN(c2ncccn2)CC1)c1ccccc1OC(F)F,"23.1 µM [falling, single point]",–
CCc1nnc(NC(=O)Nc2ccc(Cl)cc2)s1,"2.82 µM [rising, full curve]",–
O=[N+]([O-])c1ccc(-c2nc(NCc3cccnc3)c3ccccc3n2)cc1,"17.8 µM [rising, single point]",–
COc1cc2c(cc1NC(=O)CN1C(=O)NC3(CCc4ccccc43)C1=O)oc1ccccc12 (stereo unspecified),"7.08 µM [falling, partial curve]",–
O=C(Nc1cccc(C(=O)O)c1)/C(=C\c1ccco1)NC(=O)c1ccc(Br)o1,"20 µM [falling, single point]",–
COc1ccc(NC(=O)CNS(=O)(=O)c2ccc(Cl)cc2)cc1,"18.4 µM [rising, single point]",–
O=C1NC(=S)S/C1=C\c1cc2ccccc2nc1N1CCCCC1,"14.1 µM [rising, single point]",–
O=C(Nc1cc(N2CCOCC2)ncn1)c1ccccc1,"11.2 µM [falling, partial curve, poor fit]",–
COc1ccc(C2NC(=O)c3ccccc3N2)cc1 (stereo unspecified),"3.98 µM [rising, single point]",–
COc1ccc(CCNC(=O)CSc2nnc(-c3ccc(C)cc3)c(-c3ccc(C)cc3)n2)cc1OC,"20 µM [rising, partial curve, poor fit]",–
CCS(=O)(=O)c1ccc(O)c(NC(=O)/C=C/c2ccccc2)c1,"35.5 µM [falling, single point]",–
Cc1ccc(C(=O)CC2(O)C(=O)N(Cc3ccccc3Cl)c3ccccc32)o1 (stereo unspecified),"6.51 µM [falling, single point]",–
COc1ccccc1C(=O)NCC(=O)Nc1ccc2c(c1)CCC2,"23.1 µM [rising, partial curve]",–
C/C(=N\NC(=O)c1ccccc1O)c1ccc(NC(=O)Cc2ccccc2)cc1,"7.08 µM [falling, full curve]",–
COC(=O)CSC1=C(C#N)C(c2ccc(C)o2)CC(=O)N1 (stereo unspecified),"20 µM [rising, partial curve, poor fit]","20 µM [falling, partial curve, poor fit]"
CCN(CC)c1ccc(CN(C(=O)c2cc(OC)c(OC)c(OC)c2)C2CCS(=O)(=O)C2)cc1 (stereo unspecified),"5.62 µM [rising, full curve, poor fit]",–
CCOC(=O)c1ccc2c(c1)n(CC)c(/C=C/N(C)c1ccccc1)[n+]2CC,"16.4 µM [falling, partial curve, poor fit]",–
COc1ccc(Nc2nc(NCc3ccco3)nc(N)c2[N+](=O)[O-])cc1,"15.8 µM [rising, single point]",–
Clc1ccc2nc(-c3ccc4c(c3)OCO4)cn2c1,"12.6 µM [falling, partial curve]",–
O=C(CSc1ccc(-c2ccco2)nn1)NCc1ccc(Cl)cc1,"14.6 µM [falling, partial curve, poor fit]",–

# Taken from above:
# AC50 [1] with CCc1nnc(NC(=O)Nc2ccc(Cl)cc2)s1 is entered as 2.82 µM [rising, full curve]
# AC50 [1] with O=C1NC(=S)S/C1=C\c1cc2ccccc2nc1N1CCCCC1 is entered as 14.1 µM [rising, single point]
# AC50 [1] with CCOC(=O)c1ccc2c(c1)n(CC)c(/C=C/N(C)c1ccccc1)[n+]2CC is entered as 16.4 µM [falling, partial curve, poor fit]

# More results follow:

Compound,AC50 [1],AC50 [2]
COc1cc(C(=S)N2CCOCC2)cc(OC)c1OC(=O)Cc1ccc(F)cc1,"6.51 µM [rising, single point]",–
COc1ccc(S(=O)(=O)N2CCSCC2)cc1C(N)=O,"17.8 µM [falling, single point]",–
COc1ccc(C(=O)Nn2c(SCc3cccc([N+](=O)[O-])c3)nc3ccccc3c2=O)cc1,"8.2 µM [falling, partial curve]",–
CCCC(=O)Nc1ccc2c(c1)nc1n2CCSC1,"8.2 µM [rising, single point]",–
Cc1ccc(C(=O)NC2CC(=O)N(c3ccc4c(c3)OCCO4)C2)cc1[N+](=O)[O-] (stereo unspecified),"23.1 µM [rising, partial curve, poor fit]",–
CCOC(=O)c1[nH]c(CO)c(C(=O)OCC)c1C,"2.82 µM [rising, full curve, poor fit]",–
Cc1c(CC(=O)NCC(=O)NCC(=O)O)c(=O)oc2c(C)c3oc4c(c3cc12)CCCC4,"0.708 µM [rising, full curve, poor fit]",–
COc1ccc(/C=C/c2nc3ccccc3n2Cc2ccccc2OC)cc1,"32.6 µM [falling, single point]",–
CC(c1ccco1)N(C(=O)c1ccc(C#N)cc1)c1ccccn1 (stereo unspecified),"16.4 µM [rising, single point]",–
COc1ccc2c(c1)c(C(=O)N/N=C/c1ccccc1Cl)c(C)n2C,"35.5 µM [falling, single point]",–
NC(=O)C(c1ccc(F)cc1)c1ccc(C(=O)c2ccccc2)cc1 (stereo unspecified),"11.2 µM [falling, single point]",–
O=C(/C=C/c1cccs1)NNC(=O)c1ccccc1,"9.2 µM [falling, partial curve]",–
CCOc1ccc(C(=O)NC2CCN(C(=O)Nc3ccccc3OC)CC2)cc1,"13 µM [rising, partial curve]",–
COc1ccc2c(C)cc(C)nc2n1,"11.2 µM [falling, partial curve]",–
NC(=O)c1ccc2nc(NC(=O)c3ccc(N)cc3)sc2c1,"1.26 µM [falling, full curve, poor fit]",–
Cc1c(C#N)c(NC(=O)CCl)n(Cc2ccc(F)cc2)c1C,"10 µM [falling, partial curve]",–
CCc1nnc(NC(=O)CN2CCN(c3cccc(OC)c3)CC2)s1,"16.4 µM [rising, partial curve, poor fit]",–
CCCCCC(=O)N/N=C(\C)c1ccc(NC(=O)c2ccco2)cc1,"10 µM [falling, partial curve, poor fit]",–
CC(=O)C[C@H](O)CC(=O)[C@@H]1OC(=O)CCCCCCCCc2ccccc21,"29.1 µM [falling, single point]",–
COc1ccc(NC(=O)C(Cc2ccccc2)n2cccc2)c(OC)c1 (stereo unspecified),"17.8 µM [rising, single point]",–
O=C(NN=C1CCCC1)c1ccc(O)cc1O,"14.1 µM [falling, partial curve, poor fit]",–
COc1ccc(C2N(c3ccccc3)CCN2c2ccccc2)cc1O,"0.316 µM [rising, full curve, poor fit]",–

Compound,AC50 [1],AC50 [2]
Cc1ccc(-c2nnc(SCC(=O)N3CCCC3)o2)cc1C,"12.6 µM [falling, single point]",–
CC(=O)[C@H]1[C@H](C#N)C[C@H]2[C@@H]3CC=C4C[C@@H](O)CC[C@]4(C)[C@H]3CC[C@@]21C,"4.61 µM [rising, partial curve, poor fit]",–
Cc1ccc(S(=O)(=O)n2cc(-c3ccccc3)c3ccccc32)cc1,"2.59 µM [rising, full curve]","2.91 µM [falling, full curve]"
COc1cc(CNn2c(C)n[nH]c2=S)cc(Cl)c1OCC(=O)NC(C)(C)C,"11.2 µM [rising, single point]",–
CC1CN(c2ccccc2)c2nc3c(c(=O)[nH]c(=O)n3C)n2C1 (stereo unspecified),"14.1 µM [rising, partial curve, poor fit]",–
O=C(NNC(=O)c1ccc(Br)cc1)c1ccncc1,"10 µM [falling, partial curve, poor fit]",–
Cc1cccc(-c2cc3nc(C)cc(C)n3n2)c1,"0.282 µM [rising, partial curve, poor fit]",–
CN(C(=O)c1cc2c(=O)n3ccccc3nc2n1C)C1CCCCC1,"8.91 µM [rising, partial curve, poor fit]",–
COCCNC(=O)CSc1nc(-c2ccccc2)c(-c2ccccc2)o1,"16.4 µM [falling, single point]",–
CCC(CO)NCc1ccc(-c2ccccc2)cc1 (stereo unspecified),"2.06 µM [rising, full curve, poor fit]",–
CCCn1nc(C(=O)NCc2ccccn2)c2ccccc2c1=O,"20.6 µM [falling, single point]",–
COc1ccc(C(=O)Nc2oc(-c3ccccc3)c(-c3ccccc3)c2C#N)cc1OC,"4.61 µM [rising, full curve]",–
O=C(CNC(=O)c1cccs1)N/N=C/c1c(F)cccc1Cl,"3.98 µM [falling, full curve, poor fit]",–
Cn1cc([N+](=O)[O-])c(C(=O)Nc2ccc3c(c2)OCCO3)n1,"14.1 µM [falling, partial curve, poor fit]",–
Cc1ccc(C(=O)CSc2nc3ccccc3c(=O)[nH]2)cc1,"11.6 µM [rising, partial curve, poor fit]",–
Cc1cc(=O)[nH]c(SCC(=O)Nc2nc3ccccc3s2)n1,"35.5 µM [falling, single point]",–
CC(=O)N1c2ccc(S(=O)(=O)N3CCC(C(=O)N4CCN(c5ccc(Cl)cc5)CC4)CC3)cc2CC1C (stereo unspecified),"14.1 µM [falling, single point]",–
O=C1N=C(N2CCOCC2)S/C1=C\c1ccc(OS(=O)(=O)c2ccccc2)cc1,"31.6 µM [falling, single point]",–
CCOc1ccccc1/C=N/NC(=O)CNC(=O)c1cccs1,"2.51 µM [falling, full curve, poor fit]",–
COc1ccc(OCC(O)CN2CCN(c3ccccc3)CC2)cc1 (stereo unspecified),–,"0.1 µM [falling, full curve, poor fit]"
